Some of the results follow. For some of these results: Construct or isoform of the protein are uncertain.

Sequences of proteins named here, by UniProt entry; tags and fusion partners are left off.
UniProt P30530, whole entry: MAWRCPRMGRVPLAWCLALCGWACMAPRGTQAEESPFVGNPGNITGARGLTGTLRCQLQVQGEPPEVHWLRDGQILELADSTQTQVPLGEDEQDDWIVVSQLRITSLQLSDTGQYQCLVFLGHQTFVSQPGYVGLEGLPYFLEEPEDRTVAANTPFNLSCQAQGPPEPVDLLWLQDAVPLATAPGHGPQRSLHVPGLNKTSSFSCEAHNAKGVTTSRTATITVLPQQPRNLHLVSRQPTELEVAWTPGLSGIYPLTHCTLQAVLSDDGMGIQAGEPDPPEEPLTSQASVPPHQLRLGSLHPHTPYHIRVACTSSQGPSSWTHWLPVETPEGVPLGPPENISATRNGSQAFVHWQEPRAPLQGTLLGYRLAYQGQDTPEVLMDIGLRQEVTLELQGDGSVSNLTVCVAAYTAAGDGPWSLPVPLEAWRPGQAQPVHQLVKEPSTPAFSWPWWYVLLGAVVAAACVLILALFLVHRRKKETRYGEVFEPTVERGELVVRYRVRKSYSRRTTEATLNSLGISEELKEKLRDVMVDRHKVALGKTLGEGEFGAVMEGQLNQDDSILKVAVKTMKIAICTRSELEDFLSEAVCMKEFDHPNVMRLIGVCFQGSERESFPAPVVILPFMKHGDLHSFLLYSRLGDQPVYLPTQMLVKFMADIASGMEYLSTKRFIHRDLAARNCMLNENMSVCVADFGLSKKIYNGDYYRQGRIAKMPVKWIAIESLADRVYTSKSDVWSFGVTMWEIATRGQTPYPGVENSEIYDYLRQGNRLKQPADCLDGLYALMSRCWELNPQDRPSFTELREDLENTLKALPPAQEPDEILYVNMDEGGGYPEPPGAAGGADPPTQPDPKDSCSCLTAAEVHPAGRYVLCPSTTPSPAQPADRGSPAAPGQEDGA

Some test systems named below: ATF3 (human); ATG10 (human); ATG4A (human); ATP5H (human); ATPBD4 (human); ATXN3 (human).
Assay in all cases: protein microarray (ProtoArray v5.0), streptavidin-Alexa Fluor 647
Common to all, as to conditions: 3'-biotin; 20 mM Tris (pH 7.5), 5 mM MgCl2, 100 mM KCl, 0.1% Tween-20, A/T-rich and random oligonucleotide blockers; temperature not stated; high values mean tight binding

Experiment [1] relates to ATP-dependent RNA helicase DHX8 (human).
Another experiment has as its target T1, ATP5O (UniProt P48047).
T1 sequence: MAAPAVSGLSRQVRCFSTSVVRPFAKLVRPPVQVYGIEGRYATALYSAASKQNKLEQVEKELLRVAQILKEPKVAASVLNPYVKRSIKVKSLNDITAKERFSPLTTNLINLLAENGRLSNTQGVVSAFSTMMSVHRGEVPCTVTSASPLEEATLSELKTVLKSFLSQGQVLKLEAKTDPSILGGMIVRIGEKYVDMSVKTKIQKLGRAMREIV

A further experiment concerns the target AXL (UniProt P30530).
Experiment [2] deals with Acyl carrier protein, mitochondrial (human).

As for “GGTGACAGGGGTATGGGGAGGGG [G4-2 biotinylated (Ct1)]”, the binding signal in the experiment on ATF3 (human) is -0.36 z-score; in the experiment with ATG10 (human) it was -0.388 z-score; with ATG4A (human) it was -0.404 z-score; in [1], 3.49 z-score; with ATP5H (human), -0.361 z-score; with ATP5O, 3.52 z-score. For the same sequence, the binding signal was -0.372 z-score in the experiment on ATPBD4 (human), -0.39 z-score in the experiment with ATXN3 (human), -0.39 z-score with AXL and -0.387 z-score in experiment [2].

The values above are taken from PMC5996148.
